Measurements as given in patent EP0231622B1, “Inhibition of the 5-lipoxygenase pathway” (priority 1985, dated 1987).
At least one compound was matched to its structure with a doubt left. Marks after values point to notes of the source that are not given here.

System: Polymorphonuclear Leukocytes
Assay: Mouse Carrageenan Peritonitis (PMN infiltration)
Type: in vivo, Balb/c mice
Conditions: Table 3; 2 (mg Au/kg), p.o.
Excerpt: In the following Examples where mice were used, they were male Balb/c mice (20-28 g), and where rats were used, they were male Lewis rats (180-210 g). All mice and rats were obtained from Charles River Breeding Laboratories, Kingston, N.Y. Within a single experiment, mice and rats were sex and age matched.
The compounds of Formula (IA) were used either as the free base or in the appropriate salt form. Levamisole was used as the hydrochloride salt. The compounds were homogenized in 0.5% tragacanth. Compounds were administered by gavage at the indicated dose in a final volume of 10 ml/kg. Nordihydroguaiaretic acid (NDGA) was solubilized in dimethylacetamide and diluted with olive oil for subcutaneous administration.
Mice were pretreated with either the test compound or vehicle one hour before the intraperitoneal injection of a 1.0% carrageenan suspension in saline (0.2 ml/ mouse). Mice were sacrificed by cervical dislocation two hours after injection, and 3.0 ml of phosphate buffered saline, without Ca⁺⁺ or Mg⁺⁺, was injected into the peritoneum. Following massage, a 2.0 ml aliquot of the lavage fluid was removed, and the total cell count determined on a Coulter counter and differential cell count determined by microscopic examination of Giesma-stained slides.

Structure (SMILES): CC(=O)OC[C@H]1O[C@@H]([S-])[C@H](OC(C)=O)[C@@H](OC(C)=O)[C@@H]1OC(C)=O.CCP(CC)CC.[Au+] [Auranofin]
- % Change: - 6^b %
